The record followed here is patent US20150150156, “METHODS AND COMPOSITIONS FOR REDUCING GENE EXPRESSION IN PLANTS” (The Regents of the University of California, published 2015).

This data set concerns the target T1, SUVR5 zinc finger domain (aa 720-866) (Arabidopsis thaliana) (UniProt O64827).
T1 sequence: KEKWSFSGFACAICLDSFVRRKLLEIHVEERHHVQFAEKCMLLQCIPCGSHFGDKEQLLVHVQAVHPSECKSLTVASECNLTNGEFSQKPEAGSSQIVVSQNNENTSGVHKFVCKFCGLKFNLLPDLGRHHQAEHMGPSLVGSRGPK
In words: SELEX. As to conditions: consensus from 10-cycle random SELEX and 9-cycle genomic SELEX; 25 mM HEPES pH 7.5, 50 mM KCl, 2.5 mM MgCl2, 1 uM ZnSO4, RT; purified recombinant protein; protein details: GST fusion (pDEST15).

The exact form of at least one protein or probe is not confirmed. Protein sequences can lack the tags named with them.

With “TACTAGTA (double strand) [SELEX consensus motif]”, the selection result is “selected”.
